No constants are given. Whether binding was seen depends on the method and setting. In cells and extracts the contact can be indirect. Some results given as binding are weak or reduced against the parent protein; the word gives no strength.

Chains of the proteins cited; added tags and fusions are not shown. Lines headed by an entry give the natural chain unless they say otherwise; changes in a name come on top. Residues count along the entry.
UniProt P01106: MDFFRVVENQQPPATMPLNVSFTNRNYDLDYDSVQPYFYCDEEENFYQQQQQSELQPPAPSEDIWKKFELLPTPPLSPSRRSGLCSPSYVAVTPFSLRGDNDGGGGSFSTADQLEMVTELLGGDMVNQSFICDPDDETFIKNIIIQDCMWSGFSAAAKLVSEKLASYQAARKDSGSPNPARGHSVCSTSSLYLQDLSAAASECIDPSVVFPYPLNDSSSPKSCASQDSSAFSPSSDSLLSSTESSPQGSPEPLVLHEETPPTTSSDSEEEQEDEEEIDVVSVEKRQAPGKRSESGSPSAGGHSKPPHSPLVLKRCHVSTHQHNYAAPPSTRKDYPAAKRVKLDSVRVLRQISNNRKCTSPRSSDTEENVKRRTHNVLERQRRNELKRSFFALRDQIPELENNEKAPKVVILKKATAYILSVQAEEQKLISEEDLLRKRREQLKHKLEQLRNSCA
endogenous MYC (human (endogenous in UM-UC-3)): residues 16-454 of P01106
MYC N-terminal region (amino acids 1-221): residues 16-236 of P01106
MYC C-terminal region (amino acids 220-439): residues 235-454 of P01106
UniProt P51784: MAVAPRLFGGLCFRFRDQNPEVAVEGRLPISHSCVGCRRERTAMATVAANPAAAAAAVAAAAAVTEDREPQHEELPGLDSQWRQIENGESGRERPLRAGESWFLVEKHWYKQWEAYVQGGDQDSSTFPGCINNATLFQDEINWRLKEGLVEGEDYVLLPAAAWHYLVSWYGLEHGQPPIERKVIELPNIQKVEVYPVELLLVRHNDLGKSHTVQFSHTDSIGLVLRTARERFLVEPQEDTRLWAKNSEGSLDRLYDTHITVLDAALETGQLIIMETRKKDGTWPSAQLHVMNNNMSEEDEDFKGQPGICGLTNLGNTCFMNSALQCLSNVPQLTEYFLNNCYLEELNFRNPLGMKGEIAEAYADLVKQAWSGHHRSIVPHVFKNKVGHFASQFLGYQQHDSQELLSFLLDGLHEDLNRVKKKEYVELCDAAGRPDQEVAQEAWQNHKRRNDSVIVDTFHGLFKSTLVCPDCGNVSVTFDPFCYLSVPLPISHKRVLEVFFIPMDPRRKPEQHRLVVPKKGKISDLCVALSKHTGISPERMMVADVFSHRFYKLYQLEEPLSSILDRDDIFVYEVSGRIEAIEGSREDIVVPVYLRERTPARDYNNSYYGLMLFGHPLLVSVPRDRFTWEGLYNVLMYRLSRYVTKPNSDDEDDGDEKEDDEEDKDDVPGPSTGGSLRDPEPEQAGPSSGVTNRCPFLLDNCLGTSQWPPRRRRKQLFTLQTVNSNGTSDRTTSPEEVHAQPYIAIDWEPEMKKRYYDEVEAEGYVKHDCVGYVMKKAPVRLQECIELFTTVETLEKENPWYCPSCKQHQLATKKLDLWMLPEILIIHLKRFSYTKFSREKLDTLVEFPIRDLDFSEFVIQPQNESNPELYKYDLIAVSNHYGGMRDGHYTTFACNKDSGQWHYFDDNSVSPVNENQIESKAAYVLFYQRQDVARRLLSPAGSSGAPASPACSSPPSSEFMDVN

Test [1] addresses GST-MYC protein (UniProt P01106). Kind of test: pull-down; lysate of transfected 293T cells incubated overnight with 2 µg GST or GST-MYC protein, then glutathione magnetic beads 2 h; Western blot; only the target purified. For orientation: A western blot detects proteins with antibodies after separation by electrophoresis.
The target in test [2] is MYC C-terminal region (amino acids 220-439) (UniProt P01106). Kind of test: co-IP; 293T cells transfected with the plasmids; lysates incubated with primary antibody overnight at 4°C, then Protein A/G magnetic beads 3 h at 4°C, four washes, Western blot; USP11-MYC also tested with DLGAP5 knockdown or overexpression.
Test [3] has as its target MYC N-terminal region (amino acids 1-221) (UniProt P01106). Described as above.
In test [4] the target is MYC (exogenous; Flag-MYC or HA-MYC) (UniProt P01106). The test is described as above.
Test [5] addresses endogenous MYC (human (endogenous in UM-UC-3)) (UniProt P01106). Kind of test: co-IP; endogenous proteins in BLCA cells (UM-UC-3; UM-UC-3-P and GEM-resistant UM-UC-3-R); Protein A/G magnetic beads, Western blot.

For “HA-USP11 (from UniProt P51784 1-963) (enzyme)”, the binding entry in test [1], in test [2], in test [3] and in test [4] was “binds” each time.
On to “endogenous USP11 (from UniProt P51784 1-963) (enzyme)”, for which the binding entry in test [5] is listed as “binds”.

For the origin of these results see article PMC11840727.
